Results: article PMC2738963
The exact form of at least one protein or probe is not confirmed. Where cells or extracts were used, other partners may take part. For part of these data: No signal at the amounts used counts as a negative.

By UniProt entry, the sequences of proteins in these tests, tags left out. Where a name states a change or a piece, a line headed by the entry shows the natural chain unless it says otherwise.
UniProt Q02447: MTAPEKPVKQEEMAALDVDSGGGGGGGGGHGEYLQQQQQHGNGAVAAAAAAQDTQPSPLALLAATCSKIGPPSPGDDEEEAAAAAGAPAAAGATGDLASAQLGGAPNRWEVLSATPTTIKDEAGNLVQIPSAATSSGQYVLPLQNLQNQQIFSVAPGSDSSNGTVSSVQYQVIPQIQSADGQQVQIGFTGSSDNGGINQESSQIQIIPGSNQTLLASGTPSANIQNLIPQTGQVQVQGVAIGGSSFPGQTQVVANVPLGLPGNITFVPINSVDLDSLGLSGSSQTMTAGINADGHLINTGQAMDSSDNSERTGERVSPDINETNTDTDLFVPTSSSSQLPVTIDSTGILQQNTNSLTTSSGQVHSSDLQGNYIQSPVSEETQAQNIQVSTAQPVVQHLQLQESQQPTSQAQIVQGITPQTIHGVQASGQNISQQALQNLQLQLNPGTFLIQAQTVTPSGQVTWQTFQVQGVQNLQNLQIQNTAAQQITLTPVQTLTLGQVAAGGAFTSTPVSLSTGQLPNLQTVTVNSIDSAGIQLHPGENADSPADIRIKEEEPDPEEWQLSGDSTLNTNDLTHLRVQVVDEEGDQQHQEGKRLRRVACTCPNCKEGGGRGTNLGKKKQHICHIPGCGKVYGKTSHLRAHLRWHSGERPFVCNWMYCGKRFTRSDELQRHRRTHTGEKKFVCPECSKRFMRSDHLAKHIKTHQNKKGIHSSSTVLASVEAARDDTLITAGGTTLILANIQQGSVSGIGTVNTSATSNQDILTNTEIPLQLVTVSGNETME
UniProt P08047, whole entry: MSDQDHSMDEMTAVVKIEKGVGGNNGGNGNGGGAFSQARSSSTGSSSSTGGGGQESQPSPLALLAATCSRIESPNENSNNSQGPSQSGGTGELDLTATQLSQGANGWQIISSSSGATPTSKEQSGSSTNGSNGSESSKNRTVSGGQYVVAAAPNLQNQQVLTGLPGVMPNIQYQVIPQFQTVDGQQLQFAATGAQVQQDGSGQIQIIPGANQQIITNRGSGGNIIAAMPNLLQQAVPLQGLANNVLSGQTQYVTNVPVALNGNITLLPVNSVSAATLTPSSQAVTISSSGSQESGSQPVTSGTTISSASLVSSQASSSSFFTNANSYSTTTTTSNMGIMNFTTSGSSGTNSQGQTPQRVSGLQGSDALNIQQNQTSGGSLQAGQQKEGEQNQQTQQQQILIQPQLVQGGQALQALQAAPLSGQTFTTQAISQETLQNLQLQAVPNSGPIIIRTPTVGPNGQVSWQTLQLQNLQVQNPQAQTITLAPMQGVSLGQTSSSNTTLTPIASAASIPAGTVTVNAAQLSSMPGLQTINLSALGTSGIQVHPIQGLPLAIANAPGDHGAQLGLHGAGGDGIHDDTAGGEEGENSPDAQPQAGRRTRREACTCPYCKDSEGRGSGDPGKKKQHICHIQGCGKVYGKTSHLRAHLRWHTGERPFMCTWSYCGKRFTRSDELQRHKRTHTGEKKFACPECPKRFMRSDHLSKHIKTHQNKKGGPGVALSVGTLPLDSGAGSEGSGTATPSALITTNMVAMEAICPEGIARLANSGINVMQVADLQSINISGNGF

Experiments:
[1] = molecular target: Sp3 (UniProt Q02447); experiment: EMSA supershift; conditions: 50 uM ZnCl2, +/- TSA no change, antibody decreased complex; EMSA: 10 ug nuclear extract, 20 mM HEPES pH 7.3, 60 mM KCl, 1 mM MgCl2, 50 uM ZnCl2, 0.25 mM DTT, 0.1 mM EDTA, 10% glycerol, 10 ug BSA, 1-2 ug poly(dI-dC); protein in an extract
[2] = molecular target: Sp1 (UniProt P08047); experiment: EMSA supershift; conditions: 50 uM ZnCl2, +/- TSA no change; EMSA: 10 ug nuclear extract, 20 mM HEPES pH 7.3, 60 mM KCl, 1 mM MgCl2, 50 uM ZnCl2, 0.25 mM DTT, 0.1 mM EDTA, 10% glycerol, 10 ug BSA, 1-2 ug poly(dI-dC); protein in an extract
[3] = molecular target: Sp3 (UniProt Q02447); experiment: competition with a labelled probe; conditions: 50 uM ZnCl2, EMSA: 10 ug nuclear extract, 20 mM HEPES pH 7.3, 60 mM KCl, 1 mM MgCl2, 50 uM ZnCl2, 0.25 mM DTT, 0.1 mM EDTA, 10% glycerol, 10 ug BSA, 1-2 ug poly(dI-dC), protein in an extract, label: none (competitor)
[4] = molecular target: Sp1 (UniProt P08047); experiment: competition with a labelled probe; conditions: 50 uM ZnCl2, EMSA: 10 ug nuclear extract, 20 mM HEPES pH 7.3, 60 mM KCl, 1 mM MgCl2, 50 uM ZnCl2, 0.25 mM DTT, 0.1 mM EDTA, 10% glycerol, 10 ug BSA, 1-2 ug poly(dI-dC), protein in an extract, label: none (competitor)
[5] = did not compete with GC box1 wt probe
[6] = did not compete with GC box2 wt probe
[7] = did not compete with GC box3 wt probe

Row | Sequence | binding result [1] | binding result [2] | other results
1 | GGAAAGGCTCTGGGCTGGGAAGGGGCGTGGCCGCGG (double strand) [GC box1 wt] | binds | binds | 
2 | GGAAAGGCTCTGTTCTGGGAAGTTGCGTGTCCGCGT (double strand) [GC box1 mut] |  |  | binding result [3, 5]: no binding; binding result [4, 5]: no binding
3 | TGGCCGCGGGCGGAGGGGCGTGGCCGCGG (double strand) [GC box2 wt] | binds | binds | 
4 | TGGCCGCGGGCGGAGGGGCGTGGCCTCCTT (double strand) [GC box3 wt] | binds | binds | 
5 | TGTCCGCGTTCGGAGTTGCGTTTCCGCGT (double strand) [GC box2 mut] |  |  | binding result [3, 6]: no binding; binding result [4, 6]: no binding
6 | TTTCCGCGTTCGGAGTTGCGTTGCCTCCTT (double strand) [GC box3 mut] |  |  | binding result [3, 7]: no binding; binding result [4, 7]: no binding
